Laboratory results from article PMC5596555.

Amino acid sequences for entries named in this document (tags omitted). A change or cut given only in a name is not applied to a line headed by its entry.
UniProt Q9HCE7: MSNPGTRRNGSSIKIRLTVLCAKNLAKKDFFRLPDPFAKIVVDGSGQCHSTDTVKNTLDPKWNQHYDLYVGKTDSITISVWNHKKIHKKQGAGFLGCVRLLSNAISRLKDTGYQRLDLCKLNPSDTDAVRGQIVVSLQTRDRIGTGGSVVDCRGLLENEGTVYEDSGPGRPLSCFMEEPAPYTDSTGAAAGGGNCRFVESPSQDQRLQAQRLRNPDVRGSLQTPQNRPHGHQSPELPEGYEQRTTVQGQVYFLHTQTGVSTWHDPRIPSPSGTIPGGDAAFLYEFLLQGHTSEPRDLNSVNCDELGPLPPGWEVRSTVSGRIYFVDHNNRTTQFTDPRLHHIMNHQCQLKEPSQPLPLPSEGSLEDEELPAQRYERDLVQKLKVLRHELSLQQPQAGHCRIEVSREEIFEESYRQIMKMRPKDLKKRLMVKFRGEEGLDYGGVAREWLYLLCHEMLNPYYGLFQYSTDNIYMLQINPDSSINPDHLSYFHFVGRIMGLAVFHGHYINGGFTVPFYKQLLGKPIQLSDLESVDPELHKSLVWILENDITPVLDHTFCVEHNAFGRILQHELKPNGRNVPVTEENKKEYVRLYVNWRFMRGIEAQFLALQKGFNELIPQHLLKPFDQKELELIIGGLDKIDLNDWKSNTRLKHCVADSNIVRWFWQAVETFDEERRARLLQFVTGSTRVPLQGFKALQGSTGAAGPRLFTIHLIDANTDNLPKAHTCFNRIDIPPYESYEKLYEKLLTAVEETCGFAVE
UniProt Q13404: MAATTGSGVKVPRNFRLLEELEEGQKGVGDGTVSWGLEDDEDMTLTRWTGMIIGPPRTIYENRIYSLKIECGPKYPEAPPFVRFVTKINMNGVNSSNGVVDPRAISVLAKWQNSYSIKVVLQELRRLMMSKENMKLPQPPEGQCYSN

Assays:
[1] = target: His6-tagged Smurf1 (UniProt Q9HCE7); assay: pull-down; His6-Smurf1 purified from bacterial cells on nickel agarose beads; incubated with U2OS cell extract overexpressing HA-tagged Uevs overnight at 4 °C; washed five times with lysis buffer; anti-HA blot; only the target purified
[2] = target: GST-tagged Uev1A (UniProt Q13404); assay: pull-down; purified GST-tagged Uevs on GST beads; incubated with purified His6-Smurf1 overnight at 4 °C; washed four times with lysis buffer; anti-GST and anti-His6 blots; both purified

binding [1] | binding [2] | Substance
binds | – | HA-tagged Uev1A (from UniProt Q13404-2)
binds | – | HA-tagged Uev1A-F38E (from UniProt Q13404-2)
– | binds | His6-tagged Smurf1 (from UniProt Q9HCE7 1-757) (enzyme)

No constants are given. Whether binding was seen depends on the method and setting. Binding calls can cover weak binding; strength is not graded here. For part of these data: In cells and extracts the contact can be indirect.
